Results reported in PMC3522796 (Cancer letters, 2012).

Conditions: room temperature, 24 h

Which results are given for `CC(=O)O[C@H]1C(=O)[C@@]2(C)[C@H]([C@H](OC(=O)c3ccccc3)[C@]3(O)C[C@H](OC(=O)[C@H](O)[C@@H](NC(=O)c4ccccc4)c4ccccc4)C(C)=C1C3(C)C)[C@]1(OC(C)=O)CO[C@@H]1C[C@@H]2O` [PX, Paclitaxel]?
Solubility in different Miglyols (Miglyol 808, 810, 812, 818): 3.2–3.5 µg/mg Miglyol; Solubility in Miglyol 812: 3.2 ± 0.1 µg/mg Miglyol
